# The list shows a part of the results. Small differences around the control level are noise.
# Chains of the proteins cited; added tags and fusions are not shown. Lines headed by an entry give the natural chain unless they say otherwise; changes in a name come on top.
# UniProt Q8K1J5: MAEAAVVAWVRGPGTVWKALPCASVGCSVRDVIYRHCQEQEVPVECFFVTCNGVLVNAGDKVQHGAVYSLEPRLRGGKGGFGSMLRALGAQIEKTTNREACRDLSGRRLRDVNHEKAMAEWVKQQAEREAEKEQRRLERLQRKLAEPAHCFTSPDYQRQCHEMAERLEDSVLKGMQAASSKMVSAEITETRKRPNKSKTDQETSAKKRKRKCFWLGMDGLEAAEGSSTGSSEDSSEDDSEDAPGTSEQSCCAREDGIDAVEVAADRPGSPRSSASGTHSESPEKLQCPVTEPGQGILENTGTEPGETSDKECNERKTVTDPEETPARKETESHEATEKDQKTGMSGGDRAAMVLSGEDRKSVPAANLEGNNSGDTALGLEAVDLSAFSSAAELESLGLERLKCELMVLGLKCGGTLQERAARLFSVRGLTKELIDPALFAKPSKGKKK
# UniProt Q8R1H0: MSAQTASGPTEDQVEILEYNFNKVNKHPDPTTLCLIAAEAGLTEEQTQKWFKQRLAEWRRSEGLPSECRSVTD
# UniProt Q8QZX2: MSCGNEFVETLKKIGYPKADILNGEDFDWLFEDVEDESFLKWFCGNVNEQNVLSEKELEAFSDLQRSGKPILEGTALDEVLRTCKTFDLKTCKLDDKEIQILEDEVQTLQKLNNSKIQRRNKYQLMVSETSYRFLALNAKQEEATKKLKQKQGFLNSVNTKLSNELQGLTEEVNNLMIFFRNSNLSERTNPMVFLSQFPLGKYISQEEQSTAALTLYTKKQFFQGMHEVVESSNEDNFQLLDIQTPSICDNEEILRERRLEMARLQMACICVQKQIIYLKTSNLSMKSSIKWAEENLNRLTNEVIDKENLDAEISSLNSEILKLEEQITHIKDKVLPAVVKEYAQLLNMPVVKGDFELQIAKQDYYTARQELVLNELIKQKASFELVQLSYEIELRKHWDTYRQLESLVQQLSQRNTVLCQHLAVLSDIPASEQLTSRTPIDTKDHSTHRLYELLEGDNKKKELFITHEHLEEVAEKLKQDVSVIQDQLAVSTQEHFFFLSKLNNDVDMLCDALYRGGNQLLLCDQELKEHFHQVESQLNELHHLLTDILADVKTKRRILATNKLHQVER
# UniProt Q8K3C3: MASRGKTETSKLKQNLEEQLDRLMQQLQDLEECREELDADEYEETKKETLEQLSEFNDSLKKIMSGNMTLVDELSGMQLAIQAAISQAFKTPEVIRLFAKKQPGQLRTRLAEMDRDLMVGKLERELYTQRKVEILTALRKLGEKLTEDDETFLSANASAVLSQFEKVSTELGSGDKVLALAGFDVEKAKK
# UniProt Q8K2L8: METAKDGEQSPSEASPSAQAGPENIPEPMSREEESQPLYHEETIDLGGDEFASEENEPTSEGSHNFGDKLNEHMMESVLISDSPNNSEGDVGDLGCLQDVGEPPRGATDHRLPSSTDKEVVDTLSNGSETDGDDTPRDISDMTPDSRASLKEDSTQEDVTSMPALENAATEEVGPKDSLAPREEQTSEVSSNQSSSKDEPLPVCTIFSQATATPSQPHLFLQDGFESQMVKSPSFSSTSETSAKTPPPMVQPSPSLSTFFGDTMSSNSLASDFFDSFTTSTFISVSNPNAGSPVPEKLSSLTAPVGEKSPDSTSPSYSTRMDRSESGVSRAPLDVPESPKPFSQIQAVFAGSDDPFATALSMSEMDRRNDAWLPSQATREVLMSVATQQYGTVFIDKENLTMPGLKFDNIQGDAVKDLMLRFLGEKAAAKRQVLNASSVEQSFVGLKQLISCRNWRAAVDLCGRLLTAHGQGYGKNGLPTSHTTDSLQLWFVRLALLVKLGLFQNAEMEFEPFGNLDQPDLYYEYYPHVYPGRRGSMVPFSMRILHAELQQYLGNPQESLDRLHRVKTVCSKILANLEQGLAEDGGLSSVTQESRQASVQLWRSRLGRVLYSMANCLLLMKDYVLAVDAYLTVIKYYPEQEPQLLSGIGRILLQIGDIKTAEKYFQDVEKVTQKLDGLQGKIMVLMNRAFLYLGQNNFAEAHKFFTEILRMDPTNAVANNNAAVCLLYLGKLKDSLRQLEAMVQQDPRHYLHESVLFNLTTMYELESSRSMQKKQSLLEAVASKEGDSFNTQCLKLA
# UniProt Q8K4F6: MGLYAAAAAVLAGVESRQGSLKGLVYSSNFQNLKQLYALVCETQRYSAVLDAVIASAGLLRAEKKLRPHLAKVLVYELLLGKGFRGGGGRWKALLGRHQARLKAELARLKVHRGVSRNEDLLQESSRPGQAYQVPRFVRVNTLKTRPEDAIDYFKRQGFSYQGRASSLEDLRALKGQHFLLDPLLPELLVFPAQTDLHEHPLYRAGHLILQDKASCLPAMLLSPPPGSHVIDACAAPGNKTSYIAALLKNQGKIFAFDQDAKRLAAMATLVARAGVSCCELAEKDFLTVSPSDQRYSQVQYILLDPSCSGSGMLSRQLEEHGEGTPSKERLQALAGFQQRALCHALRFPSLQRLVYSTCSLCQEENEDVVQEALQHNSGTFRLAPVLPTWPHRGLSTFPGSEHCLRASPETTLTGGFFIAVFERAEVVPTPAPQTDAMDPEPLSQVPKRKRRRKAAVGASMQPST
# UniProt Q8R2K4: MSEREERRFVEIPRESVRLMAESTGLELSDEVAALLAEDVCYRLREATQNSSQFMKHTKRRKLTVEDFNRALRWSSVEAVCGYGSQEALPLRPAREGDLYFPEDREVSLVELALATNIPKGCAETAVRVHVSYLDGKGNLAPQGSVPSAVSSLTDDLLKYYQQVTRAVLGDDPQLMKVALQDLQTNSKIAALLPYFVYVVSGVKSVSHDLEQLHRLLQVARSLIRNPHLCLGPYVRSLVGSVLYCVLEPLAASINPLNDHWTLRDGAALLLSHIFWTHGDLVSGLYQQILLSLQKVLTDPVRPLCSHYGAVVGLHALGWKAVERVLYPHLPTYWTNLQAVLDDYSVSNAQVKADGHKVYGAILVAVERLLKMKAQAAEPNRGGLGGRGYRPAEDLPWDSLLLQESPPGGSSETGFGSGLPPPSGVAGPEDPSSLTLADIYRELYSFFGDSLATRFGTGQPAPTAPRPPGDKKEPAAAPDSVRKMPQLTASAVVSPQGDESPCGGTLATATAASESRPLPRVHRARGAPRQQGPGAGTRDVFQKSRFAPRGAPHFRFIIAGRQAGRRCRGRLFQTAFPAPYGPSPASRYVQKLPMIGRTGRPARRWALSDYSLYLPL
# UniProt Q8K1E0: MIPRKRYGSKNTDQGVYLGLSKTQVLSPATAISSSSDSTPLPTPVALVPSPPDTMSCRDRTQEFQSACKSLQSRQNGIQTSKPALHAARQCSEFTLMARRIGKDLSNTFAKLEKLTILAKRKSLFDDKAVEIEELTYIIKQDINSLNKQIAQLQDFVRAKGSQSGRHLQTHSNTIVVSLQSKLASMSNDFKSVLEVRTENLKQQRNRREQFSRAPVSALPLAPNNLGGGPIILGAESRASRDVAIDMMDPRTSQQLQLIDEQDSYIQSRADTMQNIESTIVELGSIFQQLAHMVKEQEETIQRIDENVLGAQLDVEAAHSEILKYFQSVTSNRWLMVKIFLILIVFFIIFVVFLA
# UniProt Q8K126: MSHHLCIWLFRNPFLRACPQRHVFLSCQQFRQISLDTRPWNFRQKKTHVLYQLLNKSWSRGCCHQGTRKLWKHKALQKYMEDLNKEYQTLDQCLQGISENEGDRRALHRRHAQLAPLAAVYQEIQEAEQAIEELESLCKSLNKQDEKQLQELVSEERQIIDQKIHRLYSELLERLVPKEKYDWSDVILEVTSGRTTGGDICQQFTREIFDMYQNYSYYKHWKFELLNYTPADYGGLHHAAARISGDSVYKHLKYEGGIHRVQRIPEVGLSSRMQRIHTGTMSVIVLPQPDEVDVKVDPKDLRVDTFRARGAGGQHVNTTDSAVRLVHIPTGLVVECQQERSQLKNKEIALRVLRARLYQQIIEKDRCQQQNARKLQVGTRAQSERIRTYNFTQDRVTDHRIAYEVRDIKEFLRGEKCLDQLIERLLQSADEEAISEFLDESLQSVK
# UniProt Q8K2H4: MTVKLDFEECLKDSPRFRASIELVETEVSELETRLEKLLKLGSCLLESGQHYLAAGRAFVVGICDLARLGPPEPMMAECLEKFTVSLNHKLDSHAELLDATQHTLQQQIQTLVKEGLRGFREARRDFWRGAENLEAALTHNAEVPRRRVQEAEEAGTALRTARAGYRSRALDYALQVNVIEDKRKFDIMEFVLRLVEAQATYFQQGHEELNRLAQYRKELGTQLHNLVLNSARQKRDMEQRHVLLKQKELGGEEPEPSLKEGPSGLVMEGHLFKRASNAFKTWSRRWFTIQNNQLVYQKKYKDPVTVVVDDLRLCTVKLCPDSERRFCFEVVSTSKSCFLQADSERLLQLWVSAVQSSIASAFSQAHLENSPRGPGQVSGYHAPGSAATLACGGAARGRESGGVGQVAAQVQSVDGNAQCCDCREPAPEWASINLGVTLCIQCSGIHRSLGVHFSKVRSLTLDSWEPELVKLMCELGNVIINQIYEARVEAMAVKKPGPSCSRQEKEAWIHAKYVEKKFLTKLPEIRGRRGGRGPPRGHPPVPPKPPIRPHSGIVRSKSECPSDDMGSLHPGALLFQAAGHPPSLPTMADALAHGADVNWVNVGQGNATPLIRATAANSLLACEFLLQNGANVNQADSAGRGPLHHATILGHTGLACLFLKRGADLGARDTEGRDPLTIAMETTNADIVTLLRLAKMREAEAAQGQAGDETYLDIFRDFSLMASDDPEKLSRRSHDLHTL
# UniProt Q8R033: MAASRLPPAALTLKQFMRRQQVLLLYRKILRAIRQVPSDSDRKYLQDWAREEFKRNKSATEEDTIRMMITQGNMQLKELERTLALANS
# UniProt Q8K1N4: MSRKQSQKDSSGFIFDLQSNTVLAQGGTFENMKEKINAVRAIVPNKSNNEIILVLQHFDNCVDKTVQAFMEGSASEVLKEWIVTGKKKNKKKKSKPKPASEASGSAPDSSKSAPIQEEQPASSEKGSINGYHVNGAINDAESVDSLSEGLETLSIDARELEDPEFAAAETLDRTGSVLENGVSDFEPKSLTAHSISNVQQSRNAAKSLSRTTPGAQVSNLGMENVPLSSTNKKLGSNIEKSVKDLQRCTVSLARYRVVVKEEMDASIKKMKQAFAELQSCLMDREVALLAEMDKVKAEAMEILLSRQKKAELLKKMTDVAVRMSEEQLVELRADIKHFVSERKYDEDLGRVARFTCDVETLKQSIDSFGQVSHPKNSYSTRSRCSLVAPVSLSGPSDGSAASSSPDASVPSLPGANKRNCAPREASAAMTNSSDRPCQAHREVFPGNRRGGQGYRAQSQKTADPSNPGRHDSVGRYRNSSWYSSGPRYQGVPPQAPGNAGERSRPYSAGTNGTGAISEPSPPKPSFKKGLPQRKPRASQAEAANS
# UniProt Q8K387: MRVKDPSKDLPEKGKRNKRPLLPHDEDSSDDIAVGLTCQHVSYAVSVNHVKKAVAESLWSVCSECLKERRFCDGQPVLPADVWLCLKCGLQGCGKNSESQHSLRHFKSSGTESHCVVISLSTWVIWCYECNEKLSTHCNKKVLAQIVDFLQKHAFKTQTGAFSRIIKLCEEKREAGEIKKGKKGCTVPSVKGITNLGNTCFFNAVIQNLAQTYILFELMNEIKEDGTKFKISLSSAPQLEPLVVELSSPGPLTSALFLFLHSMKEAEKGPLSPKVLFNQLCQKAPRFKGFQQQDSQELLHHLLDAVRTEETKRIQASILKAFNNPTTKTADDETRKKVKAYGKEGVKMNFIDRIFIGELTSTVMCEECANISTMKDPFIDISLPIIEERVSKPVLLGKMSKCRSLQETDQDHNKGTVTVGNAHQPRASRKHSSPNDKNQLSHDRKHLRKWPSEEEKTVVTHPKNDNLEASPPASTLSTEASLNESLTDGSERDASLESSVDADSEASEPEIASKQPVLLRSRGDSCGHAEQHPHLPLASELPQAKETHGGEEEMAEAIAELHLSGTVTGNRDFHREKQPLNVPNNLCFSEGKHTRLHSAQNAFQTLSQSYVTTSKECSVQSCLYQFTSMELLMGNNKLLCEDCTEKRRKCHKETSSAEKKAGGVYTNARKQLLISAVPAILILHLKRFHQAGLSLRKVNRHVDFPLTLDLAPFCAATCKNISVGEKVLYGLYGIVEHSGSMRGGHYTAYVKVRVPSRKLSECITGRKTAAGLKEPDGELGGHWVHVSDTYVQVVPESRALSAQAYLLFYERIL
# UniProt Q8K3J1, whole entry: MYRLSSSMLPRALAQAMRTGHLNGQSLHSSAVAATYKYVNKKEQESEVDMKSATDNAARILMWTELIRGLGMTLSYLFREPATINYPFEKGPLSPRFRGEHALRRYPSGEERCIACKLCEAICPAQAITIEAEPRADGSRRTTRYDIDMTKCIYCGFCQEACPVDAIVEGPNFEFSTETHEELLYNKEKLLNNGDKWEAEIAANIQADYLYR
# UniProt Q8QZT4: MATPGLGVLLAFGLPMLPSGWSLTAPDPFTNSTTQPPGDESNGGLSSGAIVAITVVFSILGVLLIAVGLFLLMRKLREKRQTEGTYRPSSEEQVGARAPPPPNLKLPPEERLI
# Compound: CN[C@@H]1C[C@H]2O[C@@](C)([C@@H]1OC)n1c3ccccc3c3c4c(c5c6ccccc6n2c5c31)C(=O)NC4 [staurosporine]
# Test: log2 fold change of tryptic peptide abundance, ligand vs vehicle (limited proteolysis) (log2 ratio); higher = more trypsin-susceptible (destabilized)
# Settings: ligand concentration: 20 uM; sample: mouse liver crude lysate; replicate design: treated separately
row,Target,log2 fold change
1,"UniProt Q8K1J5 (peptide sequence: TVTDPEETPARK, peptide start residue: 317)",0.273
2,"UniProt Q8R1H0 (peptide sequence: RSEGLPSECR, peptide start residue: 60)",0.0825
3,"UniProt Q8K2Q9 (peptide sequence: LIQQLEEERIQHQK, peptide start residue: 272)",-0.214
4,"UniProt Q8R2R9 (peptide sequence: ELIKPPTILR, peptide start residue: 132)",0.334
5,"UniProt Q8QZX2 (peptide sequence: KHWDTYR, peptide start residue: 397)",-0.153
6,"UniProt Q8K3C3 (peptide sequence: VLALAGFDVEK, peptide start residue: 177)",0.0661
7,"UniProt Q8K2L8 (peptide sequence: ILLQIGDIK, peptide start residue: 651)",0.26
8,"UniProt Q8R2N2 (peptide sequence: DTPITHISFHPK, peptide start residue: 580)",0.415
9,"UniProt Q8K268 (peptide sequence: ICVVGENGAGK, peptide start residue: 521)",-0.246
10,"UniProt Q8K4F6 (peptide sequence: KLRPHLAK, peptide start residue: 65)",0.553
11,"UniProt Q8R2K4 (peptide sequence: QQGPGAGTR, peptide start residue: 530)",0.191
12,"UniProt Q8R0F6 (peptide sequence: CQLTPNDR, peptide start residue: 312)",0.279
13,"UniProt Q8K1E0 (peptide sequence: DVAIDMMDPR, peptide start residue: 242)",-0.0681
14,"UniProt Q8K4Z3 (peptide sequence: GSETMAGAAVK, peptide start residue: 42)",-0.581
15,"UniProt Q8K126 (peptide sequence: SLNKQDEK, peptide start residue: 140)",-0.358
16,"UniProt Q8K339 (peptide sequence: SALDEIMELEEEKKR, peptide start residue: 257)",-0.195
17,"UniProt Q8K2H4 (peptide sequence: GAENLEAALTHNAEVPR, peptide start residue: 130)",0.282
18,"UniProt Q8K1I3 (peptide sequence: RNDYLLGFLSDESR, peptide start residue: 153)",-0.488
19,"UniProt Q8R033 (peptide sequence: QQVLLLYR, peptide start residue: 20)",-0.321
20,"UniProt Q8R2Q8 (peptide sequence: KVSQALEQQAR, peptide start residue: 110)",0.362
21,"UniProt Q8K1N4 (peptide sequence: SKPKPASEASGSAPDSSK, peptide start residue: 94)",-0.147
22,"UniProt Q8K387 (peptide sequence: VSKPVLLGK, peptide start residue: 390)",0.239
23,"UniProt Q8K1I7 (peptide sequence: SGPLPPPPSERPPPPVRDPPGR, peptide start residue: 344)",-0.354
24,"UniProt Q8K3J1 (peptide sequence: FRGEHALR, peptide start residue: 97)",-0.264
25,"UniProt Q8K190 (peptide sequence: TATGWLTR, peptide start residue: 44)",-0.0181
26,"UniProt Q8QZT4 (peptide sequence: QTEGTYRPSSEEQVGAR, peptide start residue: 81)",0.164

# Quoted from the entries so far (seven entries):
row,Target,log2 fold change
12,"UniProt Q8R0F6 (peptide sequence: CQLTPNDR, peptide start residue: 312)",0.279
13,"UniProt Q8K1E0 (peptide sequence: DVAIDMMDPR, peptide start residue: 242)",-0.0681
14,"UniProt Q8K4Z3 (peptide sequence: GSETMAGAAVK, peptide start residue: 42)",-0.581
15,"UniProt Q8K126 (peptide sequence: SLNKQDEK, peptide start residue: 140)",-0.358
16,"UniProt Q8K339 (peptide sequence: SALDEIMELEEEKKR, peptide start residue: 257)",-0.195
17,"UniProt Q8K2H4 (peptide sequence: GAENLEAALTHNAEVPR, peptide start residue: 130)",0.282
18,"UniProt Q8K1I3 (peptide sequence: RNDYLLGFLSDESR, peptide start residue: 153)",-0.488

# Source: the supplement of paper PMC12819154, “High-throughput peptide-centric local stability assay extends protein–ligand identification to membrane proteins, tissues and bacteria” (Nature Structural & Molecular Biology, 2025)
